Experimental data from the supplement of paper PMC12823440, “Inhibitors supercharge kinase turnover through native proteolytic circuits” (Nature, 2025).
Structures can show the parent of a compound that is named as a salt. This is one part of the list. Hit calls seldom repeat between salt and free forms of one compound.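 In K562 cells expressing nanoluciferase-fused kinases, luminescence was recorded at 4 h intervals between 2 and 18 h, normalized as percent of control with DMSO at 100% and a positive control at 0%. A significant (2 sigma) signal drop marks a time point as decreased. The authors' rule for a hit is not shown and takes in more than the number of time points.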

The chains behind the UniProt entries cited, without tags or fusion partners. Where a name states a change or a piece, a line headed by the entry shows the natural chain unless it says otherwise.
UniProt Q01974, whole entry: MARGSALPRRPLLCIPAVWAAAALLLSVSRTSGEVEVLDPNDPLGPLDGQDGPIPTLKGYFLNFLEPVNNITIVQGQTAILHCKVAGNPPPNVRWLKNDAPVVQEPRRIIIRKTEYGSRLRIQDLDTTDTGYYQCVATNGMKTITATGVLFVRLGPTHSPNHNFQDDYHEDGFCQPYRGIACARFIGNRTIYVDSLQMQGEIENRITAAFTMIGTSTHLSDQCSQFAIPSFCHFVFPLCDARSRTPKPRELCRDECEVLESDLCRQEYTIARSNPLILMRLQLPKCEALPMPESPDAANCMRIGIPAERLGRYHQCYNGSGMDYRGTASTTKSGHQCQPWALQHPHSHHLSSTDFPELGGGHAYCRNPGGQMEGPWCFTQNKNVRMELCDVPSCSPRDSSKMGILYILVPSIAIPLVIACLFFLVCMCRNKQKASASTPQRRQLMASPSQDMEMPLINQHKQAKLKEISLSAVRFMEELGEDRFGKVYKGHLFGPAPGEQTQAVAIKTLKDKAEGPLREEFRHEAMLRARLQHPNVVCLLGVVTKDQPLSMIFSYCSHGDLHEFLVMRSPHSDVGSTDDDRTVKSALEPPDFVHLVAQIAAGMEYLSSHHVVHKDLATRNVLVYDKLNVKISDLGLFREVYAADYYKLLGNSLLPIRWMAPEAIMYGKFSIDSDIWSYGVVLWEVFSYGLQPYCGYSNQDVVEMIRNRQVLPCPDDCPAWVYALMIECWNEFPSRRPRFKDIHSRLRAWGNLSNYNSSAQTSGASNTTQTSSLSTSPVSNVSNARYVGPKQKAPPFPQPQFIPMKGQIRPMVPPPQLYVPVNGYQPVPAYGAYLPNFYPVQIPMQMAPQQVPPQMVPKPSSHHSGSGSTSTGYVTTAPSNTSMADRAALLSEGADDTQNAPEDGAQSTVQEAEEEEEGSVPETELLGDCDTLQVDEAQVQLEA
UniProt Q15418, whole entry: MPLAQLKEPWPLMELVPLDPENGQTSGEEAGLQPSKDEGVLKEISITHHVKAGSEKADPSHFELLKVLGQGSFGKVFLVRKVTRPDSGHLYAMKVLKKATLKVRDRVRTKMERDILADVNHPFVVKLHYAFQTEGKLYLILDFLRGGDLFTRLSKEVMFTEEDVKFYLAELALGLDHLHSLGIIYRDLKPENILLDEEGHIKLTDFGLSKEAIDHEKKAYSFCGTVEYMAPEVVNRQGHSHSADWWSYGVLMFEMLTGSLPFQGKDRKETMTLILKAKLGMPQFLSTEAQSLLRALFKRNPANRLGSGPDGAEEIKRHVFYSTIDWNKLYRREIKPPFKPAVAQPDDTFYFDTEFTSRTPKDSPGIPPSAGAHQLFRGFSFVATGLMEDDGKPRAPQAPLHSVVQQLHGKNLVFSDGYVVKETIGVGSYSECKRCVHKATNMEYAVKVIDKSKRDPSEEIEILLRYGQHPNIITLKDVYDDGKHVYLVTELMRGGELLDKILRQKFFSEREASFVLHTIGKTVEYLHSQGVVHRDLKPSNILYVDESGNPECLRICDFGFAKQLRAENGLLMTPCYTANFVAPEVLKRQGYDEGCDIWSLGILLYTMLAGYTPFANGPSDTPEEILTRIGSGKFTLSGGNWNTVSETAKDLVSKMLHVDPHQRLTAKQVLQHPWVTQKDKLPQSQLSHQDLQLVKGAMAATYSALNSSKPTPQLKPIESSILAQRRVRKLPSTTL
UniProt Q9NYA1, whole entry: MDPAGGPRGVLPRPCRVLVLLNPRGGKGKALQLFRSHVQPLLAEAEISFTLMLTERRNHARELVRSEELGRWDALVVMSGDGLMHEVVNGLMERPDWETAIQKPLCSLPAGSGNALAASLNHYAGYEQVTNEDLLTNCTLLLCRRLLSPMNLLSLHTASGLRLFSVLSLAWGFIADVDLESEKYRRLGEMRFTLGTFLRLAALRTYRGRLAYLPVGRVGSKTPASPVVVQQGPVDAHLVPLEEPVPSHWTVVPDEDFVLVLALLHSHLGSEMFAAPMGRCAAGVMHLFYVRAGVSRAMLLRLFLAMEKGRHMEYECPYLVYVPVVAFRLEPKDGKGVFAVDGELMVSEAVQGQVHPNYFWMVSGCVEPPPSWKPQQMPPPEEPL
UniProt Q9Y6E0: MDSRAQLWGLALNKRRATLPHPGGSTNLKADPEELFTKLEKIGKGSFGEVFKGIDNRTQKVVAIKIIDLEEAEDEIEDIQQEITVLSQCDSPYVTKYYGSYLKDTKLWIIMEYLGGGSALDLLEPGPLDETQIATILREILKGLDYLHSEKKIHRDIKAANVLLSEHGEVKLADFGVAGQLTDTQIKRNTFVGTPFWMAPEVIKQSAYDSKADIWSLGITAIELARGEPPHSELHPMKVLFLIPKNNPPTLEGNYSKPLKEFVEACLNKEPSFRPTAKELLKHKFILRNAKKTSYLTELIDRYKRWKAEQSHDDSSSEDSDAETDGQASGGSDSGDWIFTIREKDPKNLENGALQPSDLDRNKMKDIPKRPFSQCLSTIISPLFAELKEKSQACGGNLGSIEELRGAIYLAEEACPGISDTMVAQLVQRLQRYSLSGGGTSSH
UniProt Q15208: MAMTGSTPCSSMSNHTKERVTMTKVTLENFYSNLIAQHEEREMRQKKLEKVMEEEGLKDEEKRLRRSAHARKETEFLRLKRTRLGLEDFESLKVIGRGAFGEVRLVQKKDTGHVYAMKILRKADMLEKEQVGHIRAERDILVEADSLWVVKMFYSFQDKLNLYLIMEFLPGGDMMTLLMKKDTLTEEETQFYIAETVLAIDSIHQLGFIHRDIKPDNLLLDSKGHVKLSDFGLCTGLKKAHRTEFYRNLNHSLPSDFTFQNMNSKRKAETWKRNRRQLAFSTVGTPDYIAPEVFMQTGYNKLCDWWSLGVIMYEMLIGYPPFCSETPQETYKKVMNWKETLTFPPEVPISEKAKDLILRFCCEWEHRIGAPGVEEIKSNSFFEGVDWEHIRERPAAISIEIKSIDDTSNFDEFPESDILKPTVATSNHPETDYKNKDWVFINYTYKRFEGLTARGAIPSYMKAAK
UniProt P42680: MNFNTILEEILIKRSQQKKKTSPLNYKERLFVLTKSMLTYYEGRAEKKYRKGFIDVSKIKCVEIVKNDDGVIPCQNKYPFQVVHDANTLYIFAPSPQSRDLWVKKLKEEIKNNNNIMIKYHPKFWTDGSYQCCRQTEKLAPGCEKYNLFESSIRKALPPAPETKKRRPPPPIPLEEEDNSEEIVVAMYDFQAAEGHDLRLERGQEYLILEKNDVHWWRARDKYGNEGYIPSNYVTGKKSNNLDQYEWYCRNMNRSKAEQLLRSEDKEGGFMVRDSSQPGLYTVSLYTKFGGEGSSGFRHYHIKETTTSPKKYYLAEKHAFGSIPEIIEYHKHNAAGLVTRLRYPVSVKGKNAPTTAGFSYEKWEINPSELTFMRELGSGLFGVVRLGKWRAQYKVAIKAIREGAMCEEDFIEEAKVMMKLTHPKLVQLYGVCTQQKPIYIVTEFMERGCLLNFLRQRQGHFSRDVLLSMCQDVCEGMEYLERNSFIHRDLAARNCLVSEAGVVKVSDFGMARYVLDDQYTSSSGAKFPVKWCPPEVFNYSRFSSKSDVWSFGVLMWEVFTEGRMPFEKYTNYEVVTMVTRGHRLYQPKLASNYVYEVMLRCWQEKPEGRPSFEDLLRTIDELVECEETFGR
UniProt P29597: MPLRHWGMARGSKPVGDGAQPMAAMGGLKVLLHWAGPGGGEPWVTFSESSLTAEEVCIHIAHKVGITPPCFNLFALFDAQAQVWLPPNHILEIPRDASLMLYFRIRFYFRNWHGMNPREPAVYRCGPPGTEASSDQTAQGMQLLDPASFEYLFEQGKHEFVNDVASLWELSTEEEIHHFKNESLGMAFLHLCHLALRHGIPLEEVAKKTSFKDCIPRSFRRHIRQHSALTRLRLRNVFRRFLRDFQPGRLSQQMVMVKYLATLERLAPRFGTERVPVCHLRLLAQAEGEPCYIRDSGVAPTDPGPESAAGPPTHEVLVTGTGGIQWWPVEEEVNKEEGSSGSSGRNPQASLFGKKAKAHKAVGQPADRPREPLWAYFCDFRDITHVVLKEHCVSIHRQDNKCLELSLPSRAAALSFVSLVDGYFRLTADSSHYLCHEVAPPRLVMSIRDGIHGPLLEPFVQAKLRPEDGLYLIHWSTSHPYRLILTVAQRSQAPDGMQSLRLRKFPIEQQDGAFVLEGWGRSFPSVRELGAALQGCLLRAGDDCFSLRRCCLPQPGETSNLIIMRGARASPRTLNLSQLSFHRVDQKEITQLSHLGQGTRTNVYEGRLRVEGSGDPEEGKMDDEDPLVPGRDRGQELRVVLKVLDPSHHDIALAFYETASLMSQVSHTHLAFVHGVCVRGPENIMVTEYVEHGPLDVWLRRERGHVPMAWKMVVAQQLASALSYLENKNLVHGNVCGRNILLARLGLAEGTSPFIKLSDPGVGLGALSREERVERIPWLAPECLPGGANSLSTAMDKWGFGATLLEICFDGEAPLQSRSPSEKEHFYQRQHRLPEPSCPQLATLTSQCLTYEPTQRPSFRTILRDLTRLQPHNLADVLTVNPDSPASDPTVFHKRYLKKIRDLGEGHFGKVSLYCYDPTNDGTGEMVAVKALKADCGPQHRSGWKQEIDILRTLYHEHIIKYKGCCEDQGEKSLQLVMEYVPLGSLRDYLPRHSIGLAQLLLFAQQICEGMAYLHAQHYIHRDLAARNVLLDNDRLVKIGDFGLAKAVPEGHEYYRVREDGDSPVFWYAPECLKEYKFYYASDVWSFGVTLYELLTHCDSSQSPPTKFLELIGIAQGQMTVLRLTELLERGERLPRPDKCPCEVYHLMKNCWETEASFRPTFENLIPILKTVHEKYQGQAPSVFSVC
UniProt Q6PHR2: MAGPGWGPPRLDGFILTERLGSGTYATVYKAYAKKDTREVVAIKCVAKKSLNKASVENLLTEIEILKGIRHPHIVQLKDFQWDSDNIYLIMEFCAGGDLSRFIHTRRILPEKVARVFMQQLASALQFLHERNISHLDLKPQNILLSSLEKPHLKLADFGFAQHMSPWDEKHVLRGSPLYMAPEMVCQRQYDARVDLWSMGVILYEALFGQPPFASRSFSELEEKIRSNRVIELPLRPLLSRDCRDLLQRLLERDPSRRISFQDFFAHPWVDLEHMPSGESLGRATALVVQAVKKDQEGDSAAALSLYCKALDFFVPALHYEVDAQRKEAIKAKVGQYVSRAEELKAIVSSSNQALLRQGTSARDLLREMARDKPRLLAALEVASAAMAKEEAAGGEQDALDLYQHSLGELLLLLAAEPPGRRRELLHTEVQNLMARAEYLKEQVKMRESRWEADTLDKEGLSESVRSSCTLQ

Assays:
Assay in all cases: number of time points (of 5) at which kinase-Nluc abundance scored as decreased, DMSO-normalised (count); higher = more persistent destabilization
Conditions in all cases: K562; 2-18 h
ROR2 = ROR2 (UniProt Q01974)
RPS6KA1 = RPS6KA1 (UniProt Q15418)
SPHK1 = SPHK1 (UniProt Q9NYA1)
SRC = SRC (UniProt P12931)
STK24 = STK24 (UniProt Q9Y6E0)
STK38 = STK38 (UniProt Q15208)
SYK = SYK (UniProt P43405)
TEC = TEC (UniProt P42680)
TYK2 = TYK2 (UniProt P29597)
ULK3 = ULK3 (UniProt Q6PHR2)

SMILES	number of time points (ROR2)	number of time points (RPS6KA1)	number of time points (SPHK1)	number of time points (SRC)	number of time points (STK24)	number of time points (STK38)	number of time points (SYK)	number of time points (TEC)	number of time points (TYK2)	number of time points (ULK3)
CC(C)CCN1c2nc(Nc3cc(F)c(O)c(F)c3)ncc2N(C)C(=O)C1C (stereo not given) (2.5 µM)	1	0	0	0	0	0	0	0	0	0
CN1CCC(CNc2ccc3ncc(-c4cccc(OC(F)(F)F)c4)n3n2)CC1 (2.5 µM)	0	0	0	0	0	0	0	0	0	0
COc1cc(-c2oc3cc(O)cc(O)c3c(=O)c2O)ccc1O [Isorhamnetin] (10 µM)	0	0	0	0	0	0	0	0	0	1
C#Cc1cccc(Nc2ncnc3cc(OC)c(NC(=O)N4C[C@H]5CCN(C)[C@H]5C4)cc23)c1 [Theliatinib] (10 µM)	0	0	0	0	0	0	0	0	0	0
Brc1ccc(CSc2nc3ccccc3o2)cc1 [BMP signaling agonist sb4] (10 µM)	0	0	0	0	0	0	0	0	0	0
COc1cc(N2CCOCC2)ccc1Nc1ncc(F)c(Nc2ccccc2NS(C)(=O)=O)n1 (10 µM)	0	0	0	0	0	0	0	0	0	0
C=CC(=O)N1CCC[C@@H](n2nc(-c3ccc(Oc4ccccc4)cc3)c3c(N)n[nH]c(=O)c32)C1 [BTK inhibitor 17] (10 µM)	0	0	0	0	0	0	0	0	0	0
Cc1c(Cl)cccc1S(=O)(=O)Nc1nc(NCCc2ccccc2)nc2c1CN(Cc1ccccc1)CC2 (2.5 µM)	1	0	5	0	0	0	0	0	0	0
Cc1cc(Nc2cc(N3CCN(C)CC3)nc(Nc3ccc([N+](=O)[O-])cc3)n2)n[nH]1 (2.5 µM)	0	0	0	0	0	0	0	0	0	0
c1nn(C2CCOCC2)cc1Nc1ncc2nnn(-c3ccc4cn[nH]c4c3)c2n1 (10 µM)	0	0	0	0	0	0	0	0	0	0
C=CC(=O)N1CCN(C(=O)CNc2cc(I)c(Cl)cc2O)CC1 [K-Ras(G12C) inhibitor 12] (10 µM)	0	0	0	0	0	0	0	0	0	3
CCc1c[nH]c2ncnc(N3CC[C@](N)(CNC(=O)c4ccc(F)cc4F)C3)c12 (10 µM)	0	0	0	0	0	0	0	0	0	0
CCN(CC)CCOc1ccc(Nc2nc(-c3ccccc3NC(=O)CCN3CCN(C)CC3)nc3ccccc23)cc1 (2.5 µM)	0	0	0	0	0	0	0	0	0	0
O=C1OC(/C=C/c2ccccc2)=NC/1=C\c1cccnc1 (10 µM)	0	0	0	0	0	0	0	0	0	0
CC(Sc1nc2c(cnn2-c2cccc(Cl)c2)c(=O)[nH]1)C(N)=O (stereo not given) (10 µM)	0	0	0	0	0	0	0	0	0	0
C=CC(=O)Nc1cccc(Oc2nc(Nc3ccc(N4CCN(C)CC4)c(F)c3)nc3[nH]ccc23)c1 [Avitinib (maleate)] (2.5 µM)	0	0	0	0	0	0	0	0	0	0
c1ccc(Cn2c(-c3ccc(OC[C@H](C4CCNCC4)n4c(-c5ccccc5)nc5ccccc54)cc3)nc3ccccc32)cc1 [Deltarasin] (2.5 µM)	0	0	0	0	0	0	0	0	0	0
COC(=O)Nc1ccc(-c2nc(N3CCOCC3)c3cnn(C4CCN(Cc5cccnc5)CC4)c3n2)cc1 (10 µM)	0	0	0	0	0	0	0	0	0	0
Clc1ccc(C(c2ccc(Cl)cc2)[n+]2ccn(CC(OCc3ccc(Cl)cc3Cl)c3ccc(Cl)cc3Cl)c2)cc1 (stereo not given) [Calmidazolium chloride] (2.5 µM)	0	0	0	0	0	0	0	0	0	0
Oc1c(F)cc(-c2cnccc2-c2ccc(N3CCOCC3)cc2)cc1F (10 µM)	0	0	0	0	0	0	0	0	0	0

SMILES	number of time points (ROR2)	number of time points (RPS6KA1)	number of time points (SPHK1)	number of time points (SRC)	number of time points (STK24)	number of time points (STK38)	number of time points (SYK)	number of time points (TEC)	number of time points (TYK2)	number of time points (ULK3)
CO[C@H]1C[C@@H]2CC[C@@H](C)[C@@](O)(O2)C(=O)C(=O)N2CCCC[C@H]2C(=O)O[C@H]([C@H](C)C[C@@H]2CC[C@@H](OCCO)[C@H](OC)C2)CC(=O)[C@H](C)/C=C(\C)[C@@H](O)[C@@H](OC)C(=O)[C@H](C)C[C@H](C)/C=C/C=C/C=C/1C [Everolimus] (10 µM)	0	0	0	0	0	0	0	0	2	0
O=C(NCCO)c1cc(C(=O)NCCO)cc(C(=O)NCCO)c1 (10 µM)	0	0	0	0	0	0	0	0	0	0
C=CC(=O)Nc1cc(Nc2nccc(-c3cn(C)c4ccccc34)n2)c(OC)cc1OCCN(C)C [Rezivertinib] (2.5 µM)	0	0	1	0	0	0	0	0	0	0
Nc1ncnc2c1nc(Br)n2[C@@H]1O[C@@H]2COP(=O)(O)O[C@H]2[C@H]1O [8-Bromo-cAMP sodium salt] (10 µM)	0	0	0	0	0	0	0	0	0	0
Cn1ncc(NC(=O)c2nc(-c3c(F)cccc3F)sc2N)c1N1CC[C@@H](N)[C@H](F)CC1 (10 µM)	0	0	0	0	0	0	0	0	0	0
Cc1cc(C(=O)NOCCO)c(Nc2ccc(I)cc2F)n(C)c1=O (10 µM)	0	0	0	0	0	0	0	0	0	1
N#Cc1ccc2ncnc(NCCc3ccccc3)c2c1 [Senexin A] (10 µM)	0	0	0	0	0	0	0	0	0	0
COC(=O)Nc1ccc(-c2nc(N3CCOCC3)c3cnn(C4CCN(C(=O)OC)CC4)c3n2)cc1 (10 µM)	0	0	0	0	0	0	0	0	0	0
CC(C)n1c(=O)n(C)c2cnc3cc(F)c(-c4ccc(OCCCN5CCCCC5)nc4)cc3c21 (10 µM)	0	0	0	0	0	0	0	0	0	0
CC1CN(CC2CCN(Cc3ccccc3)CC2)C(=O)N(c2cccc(C(=N)N)c2)C1 (stereo not given) (10 µM)	0	0	0	0	0	0	0	0	0	0
CCN1CCN(Cc2cnc(Nc3cc(-c4cc(F)c5nc(C)n(C(C)C)c5c4)c(F)cn3)nc2)CC1 (10 µM)	0	0	0	0	0	0	0	1	0	0
O=C(O)c1ccc(/C=C/S(=O)(=O)Cc2ccc(Cl)cc2)cc1 [Recilisib] (10 µM)	0	0	0	0	0	0	0	0	0	0
c1nc2c(NC3CCCCC3)nc(Nc3ccc(N4CCOCC4)cc3)nc2[nH]1 [Reversine] (10 µM)	0	0	0	0	0	0	0	0	4	0
C=C1C(=O)[C@@]23[C@H](O)C[C@@H]4C(C)(C)C(=O)CC[C@@]4(C)[C@@H]2CC[C@@H]1[C@H]3O [Glaucocalyxin A] (2.5 µM)	0	0	0	0	0	0	0	0	0	0
Nc1nc(N)c2nc(-c3cccc(O)c3)c(-c3cccc(O)c3)nc2n1 (10 µM)	0	0	0	0	0	0	0	0	0	0
COc1cc2c(cc1O)C[C@H]1c3cc(O)c(OC)cc3CC[N@@+]1(C)C2 [Phellodendrine] (10 µM)	0	0	0	0	0	0	0	0	0	0
CO[C@H]1C[C@@H]2CC[C@@H](C)[C@@](O)(O2)C(=O)C(=O)N2CCCC[C@H]2C(=O)O[C@H]([C@H](C)C[C@@H]2CC[C@@H](OC(=O)C(C)(CO)CO)[C@H](OC)C2)CC(=O)[C@H](C)/C=C(\C)[C@@H](O)[C@@H](OC)C(=O)[C@H](C)C[C@H](C)/C=C/C=C/C=C/1C [Temsirolimus] (2.5 µM)	0	0	0	0	0	0	0	0	0	0
Cc1cc(Nc2cc(N)ncn2)c(=O)n2c1C(=O)NC21CCCCC1 [Tomivosertib] (10 µM)	0	0	0	0	0	0	0	0	0	0
Nc1nccc(-c2c(-c3ccc(F)cc3)ncn2C2CCCCC2)n1 (10 µM)	0	0	0	0	0	0	0	0	0	0
COc1cc(-c2cc(-c3ccc(N4CCNCC4)cc3)cnc2C)cc(OC)c1OC (10 µM)	0	0	0	0	0	0	0	0	0	0

Given with bars between the fields: entries from further up.
SMILES | number of time points (ROR2) | number of time points (RPS6KA1) | number of time points (SPHK1) | number of time points (SRC) | number of time points (STK24) | number of time points (STK38) | number of time points (SYK) | number of time points (TEC) | number of time points (TYK2) | number of time points (ULK3)
O=C1OC(/C=C/c2ccccc2)=NC/1=C\c1cccnc1 (10 µM) | 0 | 0 | 0 | 0 | 0 | 0 | 0 | 0 | 0 | 0
Cc1cc(C(=O)NOCCO)c(Nc2ccc(I)cc2F)n(C)c1=O (10 µM) | 0 | 0 | 0 | 0 | 0 | 0 | 0 | 0 | 0 | 1
O=C(O)c1ccc(/C=C/S(=O)(=O)Cc2ccc(Cl)cc2)cc1 [Recilisib] (10 µM) | 0 | 0 | 0 | 0 | 0 | 0 | 0 | 0 | 0 | 0
